Results from article PMC9694926, “Novel Uracil-Based Inhibitors of Acetylcholinesterase with Potency for Treating Memory Impairment in an Animal Model of Alzheimer’s Disease” (Molecules, 2022).
Counter-ions that a name gives are not always drawn.

System: Aβ plaques in APP/PS1 mice entorhinal cortex
Experiment: Aβ plaques quantification by thioflavin S staining
Type: in vivo
Details: 1 mg/kg p.o., 18 days

Structure (SMILES): COc1cc2c(cc1OC)C(=O)C(CC1CCN(Cc3ccccc3)CC1)C2 (centres unmarked) [Donepezil, donepezil hydrochloride]
- effect on mean Aβ plaque number: did not significantly reduce
- effect on mean area of plaques: did not significantly reduce
